The source of these data is patent publication US20210292762.

Chains of the proteins cited; added tags and fusions are not shown. Residues count along the entry.
UniProt P05362, 28-532: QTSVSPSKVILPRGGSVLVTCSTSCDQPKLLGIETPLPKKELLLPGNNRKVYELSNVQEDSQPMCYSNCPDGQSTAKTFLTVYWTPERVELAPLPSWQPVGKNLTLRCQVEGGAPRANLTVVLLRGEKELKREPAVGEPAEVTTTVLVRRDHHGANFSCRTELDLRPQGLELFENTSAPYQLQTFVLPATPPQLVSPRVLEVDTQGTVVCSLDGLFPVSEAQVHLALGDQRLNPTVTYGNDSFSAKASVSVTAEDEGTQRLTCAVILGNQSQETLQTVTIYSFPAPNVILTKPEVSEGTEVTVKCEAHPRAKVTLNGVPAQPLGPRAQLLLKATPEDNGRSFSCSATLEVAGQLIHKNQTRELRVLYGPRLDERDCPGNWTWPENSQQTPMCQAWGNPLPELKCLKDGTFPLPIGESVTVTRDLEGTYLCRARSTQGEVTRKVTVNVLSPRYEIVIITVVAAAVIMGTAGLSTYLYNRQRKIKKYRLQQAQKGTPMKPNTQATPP

For some assays here: At least one result comes from cells or an extract, where the contact may be indirect.

Data set [1] deals with Human serum albumin (HSA) (Homo sapiens) (UniProt P02768). Description: ELONA. The note with it: 2'-F pyrimidines; Kd not calculable, no reaction with HSA up to 1000 nM; HSA coated at 25 nM; purified native protein; label: 5'-biotin; variant of 10.T.
The target of a further data set is ICAM-1 (Homo sapiens) (UniProt P05362). The experiment in a line: pull-down. The conditions noted are these: 2'-F pyrimidines; 1 uM RNA, 300 ug lysate (450 ug also in figure), streptavidin agarose, anti-ICAM-1 immunoblot; protein in a lysate after overexpression; label: 5'-biotin; variant of 10.T. For orientation: A western blot detects proteins with antibodies after separation by electrophoresis.

“UCAUGAUACGUUGCGUGAGCAACUGCGGCGCUAAAGUUUGGUUGACUAGUACAUG [biotinylated 10.T]”: in data set [1], the Kd is more than 1 µM. In addition, the binding result with ICAM-1 (Homo sapiens) is given as “binds”.

Usually Kd stands for the concentration at which binding is half-saturated.
